Measured values as given in paper doi:10.1101/2025.04.07.647271.
Results are given in words; binding and its absence hold for the method and conditions named. Binding seen in cells or lysates may run through a third protein. Some results given as binding are weak or reduced against the parent protein; the word gives no strength. Sequences can lack the tags named with a protein.

Target: T1, GFP-tagged Ref(2)P (Refractory to sigma P, Drosophila p62) (Drosophila) (UniProt P14199)
T1 sequence: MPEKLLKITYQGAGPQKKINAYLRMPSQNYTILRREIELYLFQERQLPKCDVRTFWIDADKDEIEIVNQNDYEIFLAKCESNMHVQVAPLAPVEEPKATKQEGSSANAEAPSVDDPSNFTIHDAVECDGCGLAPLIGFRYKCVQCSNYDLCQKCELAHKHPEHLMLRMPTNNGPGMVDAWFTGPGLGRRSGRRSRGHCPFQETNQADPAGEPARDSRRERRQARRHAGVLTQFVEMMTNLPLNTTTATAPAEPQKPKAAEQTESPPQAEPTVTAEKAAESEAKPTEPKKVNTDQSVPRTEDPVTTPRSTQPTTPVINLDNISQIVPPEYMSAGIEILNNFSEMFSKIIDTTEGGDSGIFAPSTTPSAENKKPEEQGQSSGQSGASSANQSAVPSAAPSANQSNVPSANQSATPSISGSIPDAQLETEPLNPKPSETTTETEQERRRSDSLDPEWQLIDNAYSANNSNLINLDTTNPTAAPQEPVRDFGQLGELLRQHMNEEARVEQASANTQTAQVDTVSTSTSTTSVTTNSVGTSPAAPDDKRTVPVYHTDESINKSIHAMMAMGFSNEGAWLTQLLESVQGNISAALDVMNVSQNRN
Assay: co-IP

- binding: binds
B1: Myc-tagged dYPEL (Drosophila YPEL) (protein, UniProt Q9W2X7 1-114)
chain: MVKTFQAYLPSTNRTYSCVHCRAHLASHDELISKSFQGSQGPAYLFNSVVNVACGQTEERVLLTGLHAVADIYCECCKTPLGWKYEHAYESSQKYKEGKFIIELAHMIKENGWD
